# In PMC10202292, “The exquisite specificity of human protein arginine methyltransferase 7 (PRMT7) toward Arg-X-Arg sites” (PLOS ONE, 2023):
# By UniProt entry, the sequences of proteins in these tests, tags left out.
# UniProt Q9NVM4, whole entry: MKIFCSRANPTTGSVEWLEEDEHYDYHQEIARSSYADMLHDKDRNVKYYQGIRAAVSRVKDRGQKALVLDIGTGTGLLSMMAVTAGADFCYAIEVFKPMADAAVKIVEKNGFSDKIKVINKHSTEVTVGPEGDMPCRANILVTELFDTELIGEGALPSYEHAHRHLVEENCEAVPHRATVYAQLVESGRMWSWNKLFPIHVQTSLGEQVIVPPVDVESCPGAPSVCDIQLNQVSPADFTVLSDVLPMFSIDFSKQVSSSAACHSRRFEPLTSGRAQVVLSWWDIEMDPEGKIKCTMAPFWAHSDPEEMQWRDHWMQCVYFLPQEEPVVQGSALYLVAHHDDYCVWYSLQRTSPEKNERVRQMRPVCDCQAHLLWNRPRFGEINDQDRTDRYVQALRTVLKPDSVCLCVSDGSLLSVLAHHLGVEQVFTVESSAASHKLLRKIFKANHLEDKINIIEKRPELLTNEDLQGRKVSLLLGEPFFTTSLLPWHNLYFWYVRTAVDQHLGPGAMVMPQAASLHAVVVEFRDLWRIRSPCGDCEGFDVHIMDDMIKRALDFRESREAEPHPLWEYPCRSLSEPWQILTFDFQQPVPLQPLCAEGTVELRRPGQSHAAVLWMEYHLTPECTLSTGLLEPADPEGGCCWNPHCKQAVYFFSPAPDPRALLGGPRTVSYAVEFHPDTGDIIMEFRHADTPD
# The match of structure and compound is tentative.
# Biological target: GST-HsPRMT7 (Homo sapiens, UniProt Q9NVM4)
# Experiment: Michaelis-Menten kinetics of peptide substrate methylation (P81 phosphocellulose paper assay)
# Parameters: key: Vmax expressed as cpm (averages of cycles 2–4)
# Conditions: + 130 mM KCl; 5 μg GST-HsPRMT7, 0.14 μM [3H]-AdoMet, 60 min, 25°C; GraphPad Prism fit
# Method: In vitro methylation assays were performed with GST-HsPRMT7, the indicated substrate protein or peptide, and 1.4 μM S-adenosyl-L-[methyl-^3H]methionine ([^3H]-AdoMet; PerkinElmer cat no. NET155V), prepared from diluting a stock of 7.0 μM [^3H]-AdoMet (81.9 Ci/mmol, 1 mCi/mL in 9:1 10 mM H2SO4:EtOH, v/v) in 10 mM HCl. All reactions were performed using distilled water buffered with 50 mM potassium HEPES, pH 9.5 and 1 mM DTT, reaching a final reaction volume of 30 μL. The reactions were initiated by adding [^3H]-AdoMet to a final concentration of 0.14 μM. Control reactions (enzyme-only, substrate-only) contained distilled water instead of substrate or GST-HsPRMT7, respectively. After initiation with [^3H]-AdoMet, all reactions analyzed via P81 phosphocellulose filter paper assay were incubated in a water bath at 25°C unless otherwise indicated for the specified time periods and were terminated with 0.5 μL 100% (w/v) trifluoroacetic acid (TFA). P81 assays performed at t = 0 were individually terminated immediately following initiation. Samples analyzed via SDS-PAGE were incubated at 4°C for 24 hours and were quenched by adding 5x SDS sample loading buffer (250 mM Tris-HCl, pH 6.8; 10% SDS, 30% glycerol, 10% β-mercaptoethanol, 0.2% bromophenol blue), followed by heating at 97°C for 3 min.
# In vitro methylation assays with GST-HsPRMT7, selected methyl-accepting substrates, and [^3H]-AdoMet were set up as described previously and performed in triplicate. Following incubation at 25°C unless otherwise indicated for the time periods specified, all samples were quenched with 0.5 μL 100% TFA and centrifuged at 9,300 g for 10 seconds in an Eppendorf centrifuge (Model 5417C). 1 cm^2 pieces of P81 phosphocellulose filter paper (LabAlley catalog no. 05-717-2A) were spotted with 25 μL from each reaction mixture and set to dry overnight. The following day, all filter paper pieces were washed three times with 50 mM sodium bicarbonate solution, pH 9.0, and dried again in liquid scintillation vials. After 5 mL of Safety Solve fluor (RPI industries) was added to each vial, [^3H] radioactivity in each sample was quantified via liquid scintillation counter (Beckman LS6500) for four total cycles at 5 minutes per sample. All data presented are expressed as averages of the cpm from cycles 2–4.
# Statistical analyses were performed using the “Analyze Data” function on GraphPad Prism v.8.0.1. To determine statistical significance, unpaired homoscedastic two-tailed Student’s t tests were performed with significance level α = 0.05 with the relevant data. To obtain apparent km and Vmax values, kinetic data were analyzed by non-linear regression using the Michaelis-Menten equation.
row,Substance,"Vmax, Michaelis-Menten best-fit value, Fig8"
1,Ac-KKDGKKRKRSRKESY-NH2,15717
2,Ac-KKGGRERGGKKY-NH2,99.03
3,Ac-KKGGRGGGGKKY-NH2,165.4
4,Ac-KKGGRGRGGKKY-NH2,821.7
5,Ac-KKGGRGRKGKKY-NH2,403.6
6,Ac-KKGGRKRGGKKY-NH2,875.5
7,Ac-KKGKRGRGGKKY-NH2,554.1
